# Assay results taken from PubChem BioAssay AID504467 (National Center for Advancing Translational Sciences (NCATS), 2011).
# Hit rate of the full screen: of about 330,000 compounds, about 7,700 (2.3%) were called active. Inconclusive results, whose numbers are uncertain, are shown with a selection of clear calls. Calls follow the shape of the dose curve; as a rule, active = well fitted inhibition curve with a large enough effect; inconclusive = small, poorly fitted or top-dose-only effect, or effect the other way; inactive = flat fitted curve, though single readings scatter. Potencies of inconclusive entries are doubtful fits and often do not repeat.
# Test: qHTS screen for small molecules that inhibit ELG1-dependent DNA repair in human embryonic kidney (HEK293T) cells expressing luciferase-tagged ELG1; also: nearly all actives have a fitted effect of over 55% in size
# Conditions: HEK293T ELG1-luciferase reporter, luminescence, 16 h, DNA damage induced by 5-fluorouridine; series mostly up to 46.1 µM
# Method in brief: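 Overnight (16 hr) co-exposure of 2,000 cells/well to 5-fluorouridine and compound at 37 °C preceded detection. Luciferase was quantified via ONE-Glo luminescence; loss of signal denotes inhibition.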
# Potency is read from the fitted curve at half-maximal effect.
row,SMILES,Potency
1,COc1cc(C(=O)NC(=S)Nc2cccc3nc(C)ccc23)cc(OC)c1OC,inactive
2,O=C(Nc1ccccc1)/C(=C\c1cccs1)NC(=O)c1ccccc1,"inconclusive: 25.9 µM [activator, partial curve, poor fit]"
3,COc1ccc(C(=O)Nc2c(-c3cccs3)c(=O)c3ccccc3n2C)cc1,"inconclusive: 29.1 µM [inhibitor, single point]"
4,O=C(Nc1nc2ccc([N+](=O)[O-])cc2s1)c1ccncc1,"inconclusive: 1.46 µM [activator, full curve]"
5,Cc1cc(C(=O)CSc2nnc(-c3ccco3)o2)c(C)n1CC1COc2ccccc2O1 (stereo not drawn),"inconclusive: 29.1 µM [inhibitor, single point]"
6,CN1CCN(C(=O)c2ccc3c(=O)n(Cc4ccco4)c(=S)[nH]c3c2)CC1,inactive
7,CCOC(=O)C(=CNc1cc(C(F)(F)F)ccc1N1CCOCC1)C(=O)OCC,"inconclusive: 23.1 µM [inhibitor, partial curve]"
8,CS(=O)(=O)N(CC(=O)Nc1ccc(C(N)=O)cc1)C1CCCCC1,inactive
9,O=C(Nc1ccccc1)N1CCC(c2ccccc2)C1 (stereo not drawn),"inconclusive: 4.11 µM [activator, single point]"
10,CC(OC(=O)CNC(=O)c1sc2ccccc2c1Cl)C(=O)NC1(C#N)CCCCC1 (stereo not drawn),inactive
11,C/C(=N\Nc1cc(C)nc(NCc2ccccc2)n1)c1ccc([N+](=O)[O-])cc1,"inconclusive: 10.3 µM [inhibitor, partial curve, poor fit]"
12,CCN(CC)S(=O)(=O)c1ccc2c(c1)nc(SCC(N)=O)n2-c1ccc(OC)cc1,"inconclusive: 25.9 µM [inhibitor, single point]"
13,Cc1cc(SC(C)C(=O)Nc2ncc(Cl)cc2Cl)nc2ccccc12 (stereo not drawn),"inconclusive: 18.4 µM [activator, single point]"
14,O=C1C(=O)N(CCCn2ccnc2)C(c2ccc(Cl)cc2)/C1=C(\O)c1ccc2c(c1)OCCO2 (stereo not drawn),"inconclusive: 8.2 µM [activator, partial curve]"
15,O=C(CCCCn1c(=O)c2ccccc2n(CC(=O)NC2CCCC2)c1=O)NCc1ccco1,inactive
16,CCc1nc2ccc(C)cc2c(C(=O)NC2CCCCC2C)c1C (stereo not drawn),"inconclusive: 32.6 µM [inhibitor, partial curve, poor fit]"
17,O=C(/C=C/c1ccc2c(c1)OCO2)c1ccc[nH]1,"inconclusive: 5.17 µM [activator, full curve]"
18,O=C1CCCC/C1=C\Nc1ccc(O)cc1,"inconclusive: 20.6 µM [activator, single point]"
19,CCN(CC)c1ccc(/C=C(/C#N)C(=O)NC(C)C)o1,"inconclusive: 20.6 µM [activator, single point]"
20,COc1cccc(OCCCOc2ccc([N+](=O)[O-])cc2Cl)c1,inactive
21,COc1cccc(/C=N/NC(=O)C(=O)Nc2ccccc2OC(F)(F)C(F)F)c1O,"inconclusive: 6.51 µM [inhibitor, full curve, poor fit]"
22,O=C(Nc1cccc(Br)c1)c1ccc(CN2CCc3ccccc3C2)cc1,"inconclusive: 1.64 µM [inhibitor, partial curve]"

# Pulled one by one from the entries so far (2):
row,SMILES,Potency
21,COc1cccc(/C=N/NC(=O)C(=O)Nc2ccccc2OC(F)(F)C(F)F)c1O,"inconclusive: 6.51 µM [inhibitor, full curve, poor fit]"
3,COc1ccc(C(=O)Nc2c(-c3cccs3)c(=O)c3ccccc3n2C)cc1,"inconclusive: 29.1 µM [inhibitor, single point]"

# Further results

row,SMILES,Potency
1,CCCS(=O)(=O)N1CCC(C(=O)NCCCOCC)CC1,"inconclusive: 16.4 µM [activator, partial curve, poor fit]"
2,Cc1ccc2nc(NC(=O)CN3C(=O)C4CC=CCC4C3=O)sc2c1 (stereo not drawn),"inconclusive: 29.1 µM [activator, single point]"
3,O=S1(=O)CC/C(=N/Nc2ccccn2)c2cc(F)ccc21,"inconclusive: 32.6 µM [inhibitor, single point]"
4,Cc1ccc(-c2nnc(CSc3nnc(COc4ccccc4)n3-c3ccc(C)cc3)o2)cc1,"inconclusive: 0.259 µM [inhibitor, single point]"
5,Cc1occc1C(=O)N/N=C/C=C\c1ccccc1[N+](=O)[O-],"inconclusive: 16.4 µM [inhibitor, single point]"
6,CS(=O)(=O)c1ccc(NCC2CCCO2)c([N+](=O)[O-])c1 (stereo not drawn),inactive
7,COc1cccc(NC(=S)N2C3CCCC2CC(NC(=O)C2CC2)C3)c1 (stereo not drawn),inactive
8,Cc1nn(-c2ccccc2)c(C)c1C(=O)OCC(=O)NC(=O)NC1CCCC1,"inconclusive: 29.1 µM [inhibitor, partial curve, poor fit]"
9,Cc1cc(NC(=O)c2nn(C)c(C)c2[N+](=O)[O-])no1,inactive
10,N#C/C(=C/c1ccco1)C(N)=S,"inconclusive: 23.1 µM [inhibitor, single point]"
11,O=C(O)CN1CCN(Cc2ccccc2F)C1=O,inactive
12,Cc1oc(CC(C)C)cc1C(=O)Nc1ccc(C(=O)O)cc1,"inconclusive: 16.4 µM [activator, partial curve]"
13,CCC(=O)Nc1nonc1-c1nc2ccccc2n1Cc1ccccc1,"inconclusive: 29.1 µM [inhibitor, single point]"
14,CON(C)C(=O)CC1(CN(Cc2ccccc2)C(=O)OC(C)(C)C)CCCCC1,"inconclusive: 29.1 µM [inhibitor, partial curve, poor fit]"
15,CCCCc1ccc(NC(=O)OC)cc1,"inconclusive: 14.1 µM [activator, single point]"
16,O=c1/c(=C/c2ccc(O)c([N+](=O)[O-])c2)sc2nc3ccccc3n12,"inconclusive: 10.3 µM [activator, partial curve]"
17,CC(SCc1nc2sc3c(c2c(=O)[nH]1)CCCC3)C(=O)Nc1ccccn1 (stereo not drawn),inactive
18,CCOCCCn1c(=N)c(C(N)=S)cc2c(=O)n3cccc(C)c3nc21,"inconclusive: 23.1 µM [inhibitor, partial curve, poor fit]"
19,Cc1ccc(NC(=O)CS(=O)CC(=O)Nc2ccc(N3CCOCC3)cc2)cc1Cl (stereo not drawn),"inconclusive: 29.1 µM [activator, single point]"
20,CCOC(=O)c1cc(C(C)(C)C)oc1CNC(=O)c1c(C)oc2c1CCCC2,"inconclusive: 29.1 µM [inhibitor, single point]"
21,O=C(O)/C=C/C(=O)c1ccc2c(c1)CCc1ccccc1-2,"inconclusive: 31.6 µM [inhibitor, single point]"
